Data on two substances can be found in PMC11882747.

The chains behind the UniProt entries cited, without tags or fusion partners.
UniProt P63159: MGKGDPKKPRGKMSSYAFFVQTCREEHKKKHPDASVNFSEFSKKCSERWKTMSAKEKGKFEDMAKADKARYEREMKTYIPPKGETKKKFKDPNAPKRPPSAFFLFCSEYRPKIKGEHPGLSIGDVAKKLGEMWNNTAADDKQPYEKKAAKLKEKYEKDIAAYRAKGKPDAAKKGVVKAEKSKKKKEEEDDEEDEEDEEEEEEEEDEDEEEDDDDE
UniProt P09429: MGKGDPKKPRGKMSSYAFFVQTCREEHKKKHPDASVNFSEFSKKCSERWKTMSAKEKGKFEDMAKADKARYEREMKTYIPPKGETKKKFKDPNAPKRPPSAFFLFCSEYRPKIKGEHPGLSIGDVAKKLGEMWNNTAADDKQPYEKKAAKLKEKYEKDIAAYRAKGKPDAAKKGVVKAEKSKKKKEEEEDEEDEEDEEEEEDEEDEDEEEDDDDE

No constants are given. Whether binding was seen depends on the method and setting. In cells and extracts the contact can be indirect. Some binding calls cover weakened binding; strength is not graded here.

Experiment [1] deals with heat shock protein 90 alpha family class A member 1 (Hsp90α), endogenous in rat kidney (rat (endogenous in kidney tissue)) (UniProt P82995). Put plainly: co-IP; endogenous proteins in kidney tissue lysate (1 mg protein) of sham-operated rats; anti-Hsp90α, anti-HMGB1 or anti-IgG overnight at 4°C, protein A + G agarose, Western blot. (In general: In western blotting, separated proteins are transferred to a membrane and probed.)

Experiment [2] has the same target. Kind of experiment: co-IP; endogenous proteins in kidney tissue lysate (1 mg protein) of UUO rats, without or with LM49 90 mg/kg/day (LM49 reduced the binding); anti-Hsp90α, anti-HMGB1 or anti-IgG overnight at 4°C, protein A + G agarose, Western blot.
The target of experiment [3] is heat shock protein 90 alpha family class A member 1 (Hsp90α), endogenous in HK-2 cells (human (endogenous in HK-2)) (UniProt P07900). Put plainly: co-IP; endogenous proteins in lysate (1 mg protein) of control HK-2 cells (normal culture, no TNF-α/OGSD); anti-Hsp90α, anti-HMGB1 or anti-IgG overnight at 4°C, protein A + G agarose, Western blot.
Experiment [4] shares this target. Kind of experiment: co-IP; endogenous proteins in lysate (1 mg protein) of HK-2 cells treated with TNF-α/OGSD for 12 h, without or with LM49 (LM49 reduced the binding); anti-Hsp90α, anti-HMGB1 or anti-IgG overnight at 4°C, protein A + G agarose, Western blot.

Turning to “high-mobility group box 1 (HMGB1), endogenous in rat kidney (from UniProt P63159 1-215)”, the binding entry in experiment [1] is “binds weakly”; in experiment [2], “binds”.

For the substance “high-mobility group box 1 (HMGB1), endogenous in HK-2 cells (from UniProt P09429 1-215)”, the binding result in experiment [3] was “binds weakly”; in experiment [4] it was “binds”.
